According to paper PMC7949105:
These are yes or no findings as the source states them, for the method shown. In cells and extracts the contact can be indirect. Some entries that bind do so weakly or less than the wild type.

Protein sequences, listed by entry. Tags and fused reporters are not part of them. Lines headed by an entry give the natural chain unless they say otherwise; changes in a name come on top. Chains listed by the source or under a name are the forms on record and can include a tag or linker. Residues count along the entry.
UniProt Q9NYV8: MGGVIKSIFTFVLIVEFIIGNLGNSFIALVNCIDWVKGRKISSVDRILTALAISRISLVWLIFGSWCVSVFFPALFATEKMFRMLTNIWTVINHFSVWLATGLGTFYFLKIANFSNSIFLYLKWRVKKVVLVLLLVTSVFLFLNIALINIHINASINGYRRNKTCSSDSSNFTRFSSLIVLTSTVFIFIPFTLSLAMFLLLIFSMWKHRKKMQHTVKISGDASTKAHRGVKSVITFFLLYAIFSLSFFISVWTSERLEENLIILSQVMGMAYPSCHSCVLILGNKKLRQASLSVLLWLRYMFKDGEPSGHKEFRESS
TAS2R14 CT-5A (Ala for the Ser residues of the cytoplasmic tail), N-terminal FLAG-tagged (Q9NYV8, form named): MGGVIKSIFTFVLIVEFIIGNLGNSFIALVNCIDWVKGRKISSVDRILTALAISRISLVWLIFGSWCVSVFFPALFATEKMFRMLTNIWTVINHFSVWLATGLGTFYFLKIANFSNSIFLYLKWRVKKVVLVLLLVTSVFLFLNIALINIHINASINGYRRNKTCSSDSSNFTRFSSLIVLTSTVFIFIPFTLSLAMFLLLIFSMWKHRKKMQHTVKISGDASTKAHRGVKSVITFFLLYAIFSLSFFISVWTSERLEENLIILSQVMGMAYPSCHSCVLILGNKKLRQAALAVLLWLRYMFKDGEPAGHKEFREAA

How the values were obtained:
[1] = target: WT N-terminal FLAG-tagged TAS2R14 (bitter taste 2 receptor member 14) (human) (UniProt Q9NYV8); test: proximity ligation; HEK-293T cells co-transfected with β-arrestin2–GFP and FLAG-tagged receptor, exposed to 500 μM DPD (agonist) for 10 min at 37 °C, fixed with 4% paraformaldehyde; primary antibodies to GFP and FLAG; red PLA puncta counted as percent of cell area; signal when the two proteins are within 30 nm
[2] = target: TAS2R14 CT-5A (Ala for the Ser residues of the cytoplasmic tail), N-terminal FLAG-tagged (human) (UniProt Q9NYV8); test: as above
[3] = target: TAS2R14 IL/CT-10A (all 10 Ala substitutions in the third intracellular loop and the cytoplasmic tail), N-terminal FLAG-tagged (human) (UniProt Q9NYV8); test: as above
[4] = target: WT N-terminal FLAG-tagged TAS2R14 (bitter taste 2 receptor member 14) (human) (UniProt Q9NYV8); test: condition: only in the absence of agonist (vehicle); proximity ligation; as a1, but cells exposed to vehicle (no agonist) for 10 min at 37 °C

binding [1]: binds
binding [2]: no binding
binding [3]: no binding
binding [4]: no binding
Substance: β-arrestin2–GFP (from UniProt P32121 1-409)
